Source: PubChem BioAssay AID1259405 (NCATS, 2018)

Screen: 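Silenced genes that increase secreted GFP made by CHO cells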 (primary screen)
System: Chinese hamster CHO-K1 ovary cells with stable secreted eGFP expression
Reagents: single siRNA against mouse genes, 0.8 pmol siRNA per well (2 µl of 400 nM stock)
Duration: 3 days
Read-out: 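Per-well intracellular GFP measured by laser scanning cytometry, plus viability from ATP luminescence, each relative to plate median of non-targeting control wells, in %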
Direction: GFP, % of control: higher = more GFP per well, higher productivity; viability (ATP), % of control: higher = more viable cells (more ATP)
Active means: 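a knock-down is called active if GFP reaches 120% or more of non-targeting control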
Shown is one part, drawn at random, of about 50,000 reagents tested. About 4,000 of them (8%) count as active. 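Mouse siRNA library applied to hamster cells; one well for each siRNA.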 A number with no mark means an inactive call. The numbers tell different reagents against one gene apart.

The opening 2 records, ahead of the listing:
no.	gene	reagent no.	GFP, % of control	viability (ATP), % of control
1	Tmprss11c	1	103	99.3
2	Tmprss11c	2	37.2	51.4

Main list, from the start:
no.	gene	reagent no.	GFP, % of control	viability (ATP), % of control
1	Tmprss11c	1	103	99.3
2	Tmprss11c	2	37.2	51.4
3	Tmprss11c	3	82.2	86
4	Gna14	1	107	96
5	Gna14	2	65.9	31
6	Gna14	3	12	13.8
7	Sh2d4b	1	81.3	90.7
8	Sh2d4b	2	55.4	59.2
9	Sh2d4b	3	96.5	89.1
10	Dse	1	58.7	72.5
11	Dse	2	34.4	59.1
12	Dse	3	69.2	84.6
13	Nefl	1	89.5	72.5
14	Nefl	2	79.5	79.4
15	Rbm43	1	65.5	85.2
16	Rbm43	2	66.3	68.9
17	Rbm43	3	84.4	79.4
18	Mib1	1	67.8	79.9
19	Mib1	2	101	82.8
20	Mib1	3	84.1	119
21	Poc1a	1	45.4	62.7
22	Poc1a	2	133 (active)	80.7
23	Poc1a	3	61.6	76.9
24	Dusp18	1	38.4	58.4
25	Dusp18	2	88.5	92.8
26	Bdkrb1	1	92.9	68.2
27	Bdkrb1	2	77	78.9
28	Bdkrb1	3	74.4	68.2
29	Snai2	1	63.2	54.2
30	Snai2	2	81.7	76.6
31	Marchf5	1	38	59.8
32	Marchf5	2	11.9	19.1
33	Marchf5	3	73.2	69.2
34	L3mbtl4	1	159 (active)	121
35	L3mbtl4	2	103	72.6
36	L3mbtl4	3	71.5	56
37	Klra19	1	85.6	101
38	Klra19	2	101	73
39	Klra19	3	101	78.7
40	Commd3	1	47.3	71.5
41	Commd3	2	50.1	74.9
42	Commd3	3	65.9	92.1
43	Brap	1	33.8	54
44	Brap	2	118	84.1
45	Brap	3	110	106
46	Mtmr12	1	76.4	88.6
47	Mtmr12	2	72.2	63.5
48	Mtmr12	3	105	107
49	Rnh1	1	23.2	34.1
50	Rnh1	2	62.6	51.2
51	Rnh1	3	51.6	67.8
52	Dhx37	1	78.4	71.2
53	Dhx37	2	51.2	58.3
54	Dhx37	3	79.7	76.2
55	Ifna6	1	58.7	53.5
56	Ifna6	2	124 (active)	60.8
57	Ifna6	3	108	86.4
